Data published in patent US20020039567A1, “Methods of treating bone or cartilage conditions by the administration of creatine” (priority 1998, published 2002).

Tested on: osteoblasts (monolayer culture)
Assay: TEM ultrastructure, monolayer osteoblast cell culture
Type: cell-based, rat
Settings: control vs 10 mM, 20 mM creatine, 1 mM, 5 mM GPA

| Compound | ultrastructure (TEM) |
| --- | --- |
| N=C(N)NCCC(=O)O [GPA, beta-guanidinopropionic acid] | no obvious differences |
| CN(CC(=O)O)C(=N)N [creatine] | no obvious differences |
